From paper PMC12098688
Results are given in words; binding and its absence hold for the method and conditions named. Binding seen in cells or lysates may run through a third protein. Here binding means that the protein was enriched with, or labelled near, the bait; the list need not be complete.

Sequences of proteins named here, by UniProt entry; tags and fusion partners are left off. Residues count along the entry.
UniProt Q15843, residues 1-76: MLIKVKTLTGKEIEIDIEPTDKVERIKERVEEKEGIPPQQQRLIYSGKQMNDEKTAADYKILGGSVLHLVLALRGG
UniProt P61586: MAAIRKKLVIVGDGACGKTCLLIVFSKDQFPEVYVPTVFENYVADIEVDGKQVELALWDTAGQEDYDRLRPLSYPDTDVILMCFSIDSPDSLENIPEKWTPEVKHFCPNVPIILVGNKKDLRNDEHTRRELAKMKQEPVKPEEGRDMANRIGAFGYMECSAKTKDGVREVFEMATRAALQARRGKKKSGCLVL

Target: endogenous NEDD8 (HK-2 cells) (human (endogenous in HK-2)) (UniProt Q15843)
Test: affinity purification with mass spectrometry; immunoprecipitation with NEDD8 from HK-2 cell lysate (HG-stimulated per the discussion), LC-MS/MS of the precipitate

**Q.** With “endogenous RhoA (HK-2 cells) (from UniProt P61586 1-193)” as the substance, how does the binding read?
**A.** The binding was “binds”.
